Results from article PMC8466742.
Results are given in words; binding and its absence hold for the method and conditions named. Binding seen in cells or lysates may run through a third protein. Some results given as binding are weak or reduced against the parent protein; the word gives no strength. For some assays here: Sequences can lack the tags named with a protein.

Amino acid sequences for entries named in this document (tags omitted).
UniProt P08183: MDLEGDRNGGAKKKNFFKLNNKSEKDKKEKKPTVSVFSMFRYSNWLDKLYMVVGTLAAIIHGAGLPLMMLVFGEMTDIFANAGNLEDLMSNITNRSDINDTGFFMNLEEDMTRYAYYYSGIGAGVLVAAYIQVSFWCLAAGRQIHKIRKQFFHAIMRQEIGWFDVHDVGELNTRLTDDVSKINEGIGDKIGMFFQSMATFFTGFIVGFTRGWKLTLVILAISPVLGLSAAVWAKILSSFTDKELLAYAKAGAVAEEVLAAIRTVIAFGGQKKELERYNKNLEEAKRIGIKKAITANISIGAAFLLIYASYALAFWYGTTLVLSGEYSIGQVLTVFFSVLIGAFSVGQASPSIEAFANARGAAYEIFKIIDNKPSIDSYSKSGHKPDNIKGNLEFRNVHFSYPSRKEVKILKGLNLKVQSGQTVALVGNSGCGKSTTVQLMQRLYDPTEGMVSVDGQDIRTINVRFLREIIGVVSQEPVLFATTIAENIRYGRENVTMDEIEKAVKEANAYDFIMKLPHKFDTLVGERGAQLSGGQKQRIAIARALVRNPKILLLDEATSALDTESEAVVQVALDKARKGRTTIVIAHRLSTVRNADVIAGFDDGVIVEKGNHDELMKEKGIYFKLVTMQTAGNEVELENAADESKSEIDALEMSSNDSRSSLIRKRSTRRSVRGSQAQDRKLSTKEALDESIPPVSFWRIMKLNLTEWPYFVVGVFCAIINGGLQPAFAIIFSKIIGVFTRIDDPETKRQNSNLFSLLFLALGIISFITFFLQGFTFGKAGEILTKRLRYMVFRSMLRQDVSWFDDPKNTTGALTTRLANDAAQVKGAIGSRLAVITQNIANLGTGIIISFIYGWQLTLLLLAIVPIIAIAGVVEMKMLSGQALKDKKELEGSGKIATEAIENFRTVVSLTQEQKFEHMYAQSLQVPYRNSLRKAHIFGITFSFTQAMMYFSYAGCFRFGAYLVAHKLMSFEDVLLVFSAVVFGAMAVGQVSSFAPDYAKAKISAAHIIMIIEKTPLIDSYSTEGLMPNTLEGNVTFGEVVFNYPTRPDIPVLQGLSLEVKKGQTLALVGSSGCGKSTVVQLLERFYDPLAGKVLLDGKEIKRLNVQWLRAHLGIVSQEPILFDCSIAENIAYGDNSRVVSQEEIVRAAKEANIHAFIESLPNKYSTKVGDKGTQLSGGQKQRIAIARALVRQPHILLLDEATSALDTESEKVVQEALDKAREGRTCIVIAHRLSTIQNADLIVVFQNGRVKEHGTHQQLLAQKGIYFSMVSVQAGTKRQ

Legend:
[1] = biological target: Myc-ABCB1 (ATP-binding cassette subfamily B member 1) (UniProt P08183); assay: co-IP; HEK293T co-transfected with Myc-ABCB1 with or without 3 x Flag-MARCH8; IP with anti-Myc antibody, immunoblot with anti-Flag and anti-Myc; lysis buffer 50 mM Tris-HCl pH 8.0, 150 mM NaCl, 1% NP-40, 0.5% sodium deoxycholate, 0.2% SDS
[2] = biological target: endogenous ABCB1 (human (endogenous in MCF-7/ADR and A549/Taxol)) (UniProt P08183); assay: co-IP; endogenous proteins in lysates of MCF-7/ADR and A549/Taxol cells; IP overnight at 4 °C with indicated antibody and protein A-Sepharose; lysis buffer 50 mM Tris-HCl pH 8.0, 150 mM NaCl, 1% NP-40, 0.5% sodium deoxycholate, 0.2% SDS

| binding [1] | binding [2] | Binder |
| --- | --- | --- |
| binds |  | 3 x Flag-MARCH8 (membrane-associated RING-CH 8) (enzyme, UniProt Q5T0T0 1-291) MSMPLHQISAIPSQDAISARVYRSKTKEKEREEQNEKTLGHFMSHSSNISKAGSPPSASAPAPVSSFSRTSITPSSQDICRICHCEGDDESPLITPCHCTGSLHFVHQACLQQWIKSSDTRCCELCKYEFIMETKLKPLRKWEKLQMTSSERRKIMCSVTFHVIAITCVVWSLYVLIDRTAEEIKQGQATGILEWPFWTKLVVVAIGFTGGLLFMYVQCKVYVQLWKRLKAYNRVIYVQNCPETSKKNIFEKSPLTEPNFENKHGYGICHSDTNSSCCTEPEDTGAEIIHV |
|  | binds | endogenous MARCH8 (enzyme, UniProt Q5T0T0 1-291) MSMPLHQISAIPSQDAISARVYRSKTKEKEREEQNEKTLGHFMSHSSNISKAGSPPSASAPAPVSSFSRTSITPSSQDICRICHCEGDDESPLITPCHCTGSLHFVHQACLQQWIKSSDTRCCELCKYEFIMETKLKPLRKWEKLQMTSSERRKIMCSVTFHVIAITCVVWSLYVLIDRTAEEIKQGQATGILEWPFWTKLVVVAIGFTGGLLFMYVQCKVYVQLWKRLKAYNRVIYVQNCPETSKKNIFEKSPLTEPNFENKHGYGICHSDTNSSCCTEPEDTGAEIIHV |
